Test results taken from PMC10417383, “DNA-Binding Activity of CAMTA3 Is Essential for Its Function: Identification of Critical Amino Acids for Its Transcriptional Activity”.
A weaker result is weaker than the reference pair of the same experiment. Protein sequences can lack the tags named with them.

Biological target: T1, CAMTA3 CG-1 M5 W118A (Arabidopsis thaliana) (UniProt Q8GSA7)
T1 sequence (looked up): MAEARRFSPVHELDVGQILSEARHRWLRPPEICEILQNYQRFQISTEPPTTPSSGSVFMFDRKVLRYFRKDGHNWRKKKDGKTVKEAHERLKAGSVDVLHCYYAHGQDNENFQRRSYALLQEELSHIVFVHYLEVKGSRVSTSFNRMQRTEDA
Assay: EMSA
Details: complex detected only from 100 ng protein (WT 25 ng), reduced by unlabeled PDF1.4 competitor; 1X LightShift EMSA binding buffer, 50 ng/ul poly(dI-dC), 20 fmol probe in 20 ul, +/- 4 pmol unlabeled DNA, room temperature 30 min; 5% native PAGE, 0.5X TBE; recombinant protein; residues 1-153; protein details: His (pET28a); label: 3'-biotin on strand 1

CGTGAAAGTCACGCGCCAAGAACAAA (double strand) [PDF1.4 promoter probe]
binding result: binds more weakly
